From US11464796B2, “Nicotinamide mononucleotide derivatives and their uses” (Metro International Biotech, LLC, priority 2015, dated 2022)
Several values for one entry are separate records, joined by “and”; a condition that tells them apart may be missing. Equal values may be shown once. Where a name gives a salt, the structure may show the parent alone. At least one read-out could not be matched to a standard name with certainty.

What was measured:
[1] = tested on: NAD+ levels in liver; assay: NAD+ level in liver of mice after a single oral dose (LC/MS), ratio to vehicle control; assay type: in vivo; conditions: single oral gavage in PBS, generally 500 mg/ml (in some cases 250 mg/kg or ethanol/PBS/PEG400), fasted male C57/BL6 mice, Trifluoroacetate Salt
Method: (§1) As the compounds disclosed herein can act as prodrugs for NMN, their biological activity was assessed in vivo by measuring the ability to elevate NAD+ levels in liver and skeletal muscle. These tissues were selected for pharmacodynamics studies due to their relevance for the treatment of metabolic diseases. In general, C57/BL6 mice were fasted from 16 hours, then administered a […] oral dose of a disclosed compound in PBS buffer by oral gavage. In some cases, the dose was 250 mg/kg or in an alternate vehicle: ethanol/PBS/PEG400 (10/30/60). After dosing, the mice were sacrificed at pre-set time points after dosing (generally 4, 8 and 24 hours). The liver and skeletal tissues were removed and flash frozen. After some period of frozen storage, tissue homogenates were prepared. The level of NAD+ was quantified using LC/MS methods.
For bioanalysis, a method of standard addition was used to quantify the NAD. Each homogenate was divided and certain aliquots had known concentrations of exogenous NAD added. The NAD present in the original sample was then calculated by linear regression. Data are presented as a ratio of mean NAD concentration in treated mouse tissues to mean NAD concentration in the vehicle control group tissues at the paired time points.
Mixtures of compound and PBS, pH 7 were formulated ˜1 hour before dosing and remained stirring until dose completion. Residual formulated test materials were stored at −20±5° C. until discarded. Naïve male C57/BL6 mice at ˜25 g at dose initiation, age as appropriate for weight were assigned to dose groups of six animals per dose. Dosing treatments were administered via a single oral gavage dose (PO) The dose volume for each animal (5 mL/kg) was based on the most recent body measurements taken the morning of dosing. Animals were fasted at least 16 hrs prior to dose, with food returned at least 4 hours post dose.
(§2) Liver and skeletal muscle were collected and analyzed for nicotinamide adenine dinucleotide (NAD) at 0, 4, 8, and 24 hours post-dose. […]
(§3) • 1. […] The concentration of NAD+ in the tissues was determined by LC/MS. […]

[2] = tested on: NAD+ levels in skeletal muscle; assay: NAD+ level in skeletal muscle of mice after a single oral dose (LC/MS), ratio to vehicle control; assay type: in vivo; conditions: soleus skeletal muscle, single oral gavage in PBS, generally 500 mg/ml (in some cases 250 mg/kg or ethanol/PBS/PEG400), fasted male C57/BL6 mice, Trifluoroacetate Salt
Method: as §1
For bioanalysis, a method of standard addition was used to quantify the NAD. Each homogenate was divided and certain aliquots had known concentrations of exogenous NAD added. The NAD present in the original sample was then calculated by linear regression. […]
as §2, §3

**Q.** Cc1ccc(OP(=O)(NC(C)C(=O)OCc2ccccc2)OCC2O[C@@H]([n+]3cccc(C(N)=O)c3)[C@H](O)[C@@H]2O)cc1 (stereo partly drawn) [Compound 7, Benzyl ((((3aR,6R,6aR)-6-(3-carbamoyl-1λ^4-pyridin-1-yl)-2,2-dimethyltetrahydrofuro[3,4-d][1,3]dioxol-4-yl)methoxy)(p-tolyloxy)phosphoryl)alaninate Trifluoroacetate Salt] was tested. Which “ratio of mean NAD+ concentration in treated mice compared to vehicle control mice, 4 hr liver” value ([1]; 4 hr post-dose) did it give?
**A.** 1.5 and 1.1

**Q.** And the “ratio of mean NAD+ concentration in treated mice compared to vehicle control mice, 8 hr liver” value ([1]; 8 hr post-dose)?
**A.** 1.7 and 1.1

**Q.** And the “ratio of mean NAD+ concentration in treated mice compared to vehicle control mice, 24 hr liver” value ([1]; 24 hr post-dose)?
**A.** 1.2 and 1.1

**Q.** What about the “ratio of mean NAD+ concentration in treated mice compared to vehicle control mice, 4 hr skeletal” value ([2]; 4 hr post-dose) of the same compound?
**A.** 1.4 and 1.3

**Q.** And the “ratio of mean NAD+ concentration in treated mice compared to vehicle control mice, 8 hr skeletal” value ([2]; 8 hr post-dose)?
**A.** 1.1 and 1.2
